According to PubChem BioAssay AID504834 (National Center for Advancing Translational Sciences (NCATS), 2011):
In all, about 320,000 compounds went through this assay and about 22,000 (6.9%) were called active. The inconclusive results got no clear call from the source; some entries with a clear call stand among them for comparison. Calls come from the whole dose curve; as a rule, active = well fitted inhibition curve with a large enough effect; inconclusive = small, poorly fitted or top-dose-only effect, or another doubt; inactive = no such curve, though single readings can be large or run the other way. Potencies beside an inconclusive call are fits to weak or partial responses and may not hold up.

Assay: Primary qHTS for delayed death inhibitors of the malarial parasite plastid, 96 hour incubation
Conditions: P. falciparum luciferase reporter growth; series mostly up to 28.7 µM
How it was run: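 Luminescence readout: decreased luciferase signal marks inhibited growth of reporter-expressing P. falciparum in infected red cells (2% hematocrit, 0.05% parasitemia final), exposed to compound two generations (96 h, 37 C, 5% CO2).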
% is set by controls: 0 for no effect and ±100 for the full control effect; potency is the fitted concentration of half-maximal effect.

Structure (SMILES)	Potency	activity change, negative = inhibition
COC(=O)c1ccccc1N(C)S(=O)(=O)c1cc2c3c(c1)CCC(=O)N3CCC2	inconclusive: 9.28 µM [inhibitor, partial curve, poor fit]	
c1ccc2c(CNC3CCCCC3)c[nH]c2c1	active: 13.1 µM	
CC(NC(=O)C(C)(C)C)c1nc2ccccc2n1C (centres undefined)	inconclusive: 11.7 µM [inhibitor, single point]	
O=C(COc1ccc(Br)cc1)Nc1ccc(N2CCOCC2)cc1N1CCOCC1	inconclusive: 0.104 µM [inhibitor, full curve, poor fit]	
O=C(O)c1ccccc1NS(=O)(=O)c1ccccc1C(F)(F)F	inconclusive: 7.38 µM [inhibitor, partial curve, poor fit]	
C=CCC1(CC=C)CCCN1Cc1nc(COc2ccccc2)no1	inconclusive: 16.5 µM [inhibitor, single point]	
COc1ccc(N(CC(=O)NN=C2CCCC2)S(=O)(=O)c2ccccc2)cc1	inactive	
COc1ccccc1-c1nc(N)n[nH]1	inconclusive: 4.65 µM [inhibitor, partial curve, poor fit]	
O=C(CSc1ccc2nnc(CCNC(=O)c3ccccc3)n2n1)NCc1ccco1	inactive	
S=c1nc(Cc2ccc(Cl)cc2)[nH]c2ccccc12	inconclusive: 0.522 µM [inhibitor, single point]	
Cc1cc(C)c(NS(=O)(=O)c2ccc(NC(=O)/C=C/C(=O)O)cc2)c(C)c1	inactive	
COc1cccc(-c2onc3ccc(C(C)=O)cc23)c1	inactive	
COc1cc(CCCN2C(N)=NC[C@@H]2Cc2ccccc2)cc(OC)c1OC	active: 9.28 µM	
Cc1nn(-c2ccccc2)c(C)c1/C=N/NC(=O)c1cnccn1	inactive	
Cc1ccnc(NC(=O)c2ccc(Cl)c(NC(=O)CCc3ccccc3)c2)c1	inconclusive: 9.28 µM [inhibitor, partial curve, poor fit]	
Cc1cccc(N/C=C/C(=O)c2ccc(Cl)cc2)c1	inactive	
N#Cc1nc(-c2cccc(Cl)c2)oc1N1CCC(C(N)=O)CC1	inconclusive: 4.15 µM [inhibitor, single point]	
CCOc1cc(O)c(-c2[nH]ncc2-c2nc(C)cs2)cc1CC	inconclusive: 11.7 µM [inhibitor, single point]	
Cc1cc(NC(=O)c2ccc(-c3ccccc3F)o2)no1	inactive	
NC(=O)c1ccsc1NC(=O)CCS(=O)(=O)c1ccc(F)cc1	inactive	
O=C(COc1coc(CN2CCN(c3ccccc3F)CC2)cc1=O)NC1CCCCC1	inconclusive: 9.28 µM [inhibitor, single point]	
Cc1c(Br)c([N+](=O)[O-])nn1CC(=O)N1CCCc2ccccc21	active: 2.33 µM	
COc1ccc(C(=O)NC(=S)Nc2ccc3oc(=O)ccc3c2)cc1[N+](=O)[O-]	inactive	
Cc1nn(-c2ccccc2)c(N)c1Sc1ccccc1[N+](=O)[O-]	inconclusive: 4.15 µM [inhibitor, single point]	
CCOc1ccc(Cn2nnc(-c3ccc(S(C)(=O)=O)cc3)n2)cc1OCC	active: 0.928 µM	

Structure (SMILES)	Potency	activity change, negative = inhibition
O=C(NCC1CCCO1)C1CCN(C2CCN(CCCC3CCCC3)CC2)CC1 (centres undefined)	inconclusive: 18.5 µM [inhibitor, single point]	
COc1cc(/C(C)=C/c2ccccc2)c2c(c1)oc1ccccc12	inconclusive: 18.5 µM [inhibitor, single point]	
O=C(NC(Cc1c[nH]c2ccccc12)C(=O)N/N=C/c1cccnc1)c1cccs1 (centres undefined)	inactive	
O=C(NCCc1ccc(Cl)cc1)C1CCN(C(=O)c2ccc(F)cc2)CC1	inactive	
CCOC(=O)C1CCN(CC(=O)N(CC(C)C)c2c(N)n(CC(C)C)c(=O)[nH]c2=O)CC1	inactive	
CCOc1cc(CNc2ccc3c(c2)OCCO3)cc(Br)c1OCC(N)=O	inconclusive: 18.5 µM [inhibitor, single point]	
COc1ccc(COc2cc(-c3cccc(OC)c3)nc3ccc(NC(=O)c4ccc(C)cc4)cc23)cc1	active: 3.29 µM	
COc1cccc(C(=O)COC(=O)COc2c(C)cc(C)cc2C)c1	inconclusive: 18.5 µM [inhibitor, single point]	
CC(NC(=O)CN1C(=O)NC(c2ccccc2)(c2ccccc2)C1=O)c1cccs1 (centres undefined)	inconclusive: 10.4 µM [inhibitor, single point]	
COc1ccccc1C1(CC(=O)O)CCOC(C(C)C)C1 (centres undefined)	inactive	
CC1(C)CC(=O)c2c(noc2-c2ccccc2)C1	inconclusive: 8.28 µM [inhibitor, partial curve, poor fit]	
Cc1cccc(NC(=O)Nc2c(C)[nH]c(=O)[nH]c2=O)c1C	inactive	
CC(C)c1nnc(NC(=O)COc2ccc3ccccc3c2)s1	inactive	
COc1cc(NC(=O)CNC(=O)Cn2ccc3ccccc3c2=O)cc(OC)c1OC	inconclusive: 18.5 µM [inhibitor, partial curve, poor fit]	
C/C(=N/NC(=O)CN(c1ccccc1)S(=O)(=O)c1ccccc1)c1ccccc1O	inconclusive: 16.5 µM [inhibitor, single point]	
Cc1ccc2nc(Nc3ncc4c(n3)CC(C)(C)CC4=O)nc(C)c2c1	inconclusive: 10.4 µM [inhibitor, partial curve, poor fit]	
COc1ccccc1NC(=O)CSc1nc2ccccc2c(=O)n1CCNC(C)=O	active: 8.28 µM	
CCOc1ccccc1N1CCN(C(=O)CC(C)(C)C)CC1	inconclusive: 0.0738 µM [inhibitor, full curve, poor fit]	
COc1ccccc1Cn1c(=O)c2ccccc2n2c(SCc3csc(C)n3)nnc12	active: 5.22 µM	
Cc1c(C(=O)N2CCCCC2)c(S(=O)(=O)N2CCc3ccccc32)c(C)n1C	inactive	
COC(=O)c1ccc(CNC(=O)CSc2nc3ccccc3[nH]2)cc1	inactive	
CC/C(=N\Nc1ccnc2cc(Cl)ccc12)c1ccc(O)cc1	active: 1.31 µM	
O=C(Nc1ccccc1)N(Cc1ccccc1)CC(O)C(F)(F)F (centres undefined)	inactive	
Cc1cc(C(=O)Cn2nnc(-c3ccc(Cl)cc3)n2)c(C)n1CC1CCCO1 (centres undefined)		inactive: 7.53% [at 5.75 µM]
CCOc1ccccc1N(CC(=O)Nc1cccc2ccccc12)S(C)(=O)=O	inactive	

Some of these compounds in order of SMILES length, smallest number first:
Structure (SMILES)	Potency	activity change, negative = inhibition
O=C(O)c1ccccc1NS(=O)(=O)c1ccccc1C(F)(F)F	inconclusive: 7.38 µM [inhibitor, partial curve, poor fit]	
O=C(COc1ccc(Br)cc1)Nc1ccc(N2CCOCC2)cc1N1CCOCC1	inconclusive: 0.104 µM [inhibitor, full curve, poor fit]	
C/C(=N/NC(=O)CN(c1ccccc1)S(=O)(=O)c1ccccc1)c1ccccc1O	inconclusive: 16.5 µM [inhibitor, single point]	
COc1ccc(COc2cc(-c3cccc(OC)c3)nc3ccc(NC(=O)c4ccc(C)cc4)cc23)cc1	active: 3.29 µM	

Carrying on.

Structure (SMILES)	Potency	activity change, negative = inhibition
Cc1cc(NC(=O)c2ccc(C)o2)no1	inconclusive: 10.4 µM [inhibitor, single point]	
COc1ccc(N(C)S(=O)(=O)c2ccc3c(c2)NC(=O)CC(=O)N3)c(OC)c1	inconclusive: 10.4 µM [inhibitor, single point]	
COc1ccc(/C=C/c2cc(C(=O)O)c3ccccc3n2)cc1	inconclusive: 18.5 µM [inhibitor, single point]	
CN1CCC[C@@H]1CCO[C@](C)(c1ccccc1)c1ccc(Cl)cc1	active: 15.1 µM	
CCO[C@@H]1OC(C(=O)NCc2nc3ccccc3[nH]2)=C[C@H](c2csc3ccccc23)[C@H]1CCCO	active: 13.1 µM	
COc1ccc(NC(=O)c2oc3ccccc3c2NC(=O)C(C)(C)C)cc1	inconclusive: 0.586 µM [inhibitor, full curve, poor fit]	
Cc1nn(Cc2ccccc2)c(C)c1C(=O)NCCN1C(=O)S/C(=C\c2ccc(F)cc2)C1=O	inconclusive: 14.7 µM [inhibitor, single point]	
N#C/C(=C\c1cc([N+](=O)[O-])c(N2CCOCC2)cc1N1CCOCC1)c1nc2ccccc2[nH]1	active: 11.7 µM	
O=C(Cc1ccccc1)NCC(=O)N1CCN(c2ccccc2F)CC1	inactive	
CCN(CC)S(=O)(=O)c1ccc(Nc2nc3ccccc3n3nnnc23)cc1	inactive	
O=C(NN1CCOCC1)c1ccc(Cl)cc1	inconclusive: 11.7 µM [inhibitor, single point]	
Cc1ccnc2nc(C(=O)Nc3nnc(-c4ccc(Cl)cc4)o3)nn12	inconclusive: 18.5 µM [inhibitor, single point]	
COc1ccc(-c2nc(N3CCN(C)CC3)sc2-c2ccc(OC)cc2)cc1	inconclusive: 18.5 µM [inhibitor, single point]	
COc1ccc(C(=O)OCC(=O)c2ccc(CNC(C)=O)s2)cc1	inconclusive: 1.31 µM [inhibitor, partial curve, poor fit]	
COC(=O)Cc1c(C)c2ccc(OCC(=O)N3CCC(C)CC3)c(C)c2oc1=O	inconclusive: 18.5 µM [inhibitor, single point]	
CCOC(=O)N1CCc2c(sc(NC(=O)C3COc4ccccc4O3)c2C(N)=O)C1 (centres undefined)	active: 9.28 µM	
CN(Cc1cn(C)nc1-c1ccccc1F)CC1CCCCO1 (centres undefined)	inconclusive: 13.1 µM [inhibitor, single point]	
O=C(Cn1cnc2c(nnn2Cc2ccccc2)c1=O)NCC1CCCO1 (centres undefined)	inactive	
N#Cc1c2nc3ccccc3nc2n2cc(NC(=O)c3ccc(F)cc3)ccc12	inconclusive: 4.15 µM [inhibitor, single point]	
CNC(=O)c1ccccc1-c1ccccc1	inconclusive: 20.8 µM [inhibitor, single point]	
C=CC(C)(O)CCCC(C)CCCC(C)CCCC(C)C (centres undefined)	inconclusive: 14.7 µM [inhibitor, single point]	
CCOC(=O)Cc1csc(NC(=O)CSc2nnc3ccccn23)n1	inconclusive: 13.1 µM [inhibitor, single point]	
C/C(CC1CC(COCCC(C)C)OC1=O)=N\NC(N)=S (centres undefined)	inconclusive: 1.85 µM [inhibitor, single point]	
CC(C)CNCC1OCc2ccccc2CO1	inactive	
